Test results published in the supplement of paper PMC8166895.
Counter-ions that a name gives are not always drawn. This is one part of the list. Most values lie at the level of the controls, where differences are scatter.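 Melting temperature was read by differential scanning fluorimetry in a single-replicate pilot screen of a library of approved drugs and clinical or known-target compounds. Compounds raising the melting point by at least 2 °C were the top stabilizing hits, and negative shifts mean destabilization.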

Test system: SARS-CoV-2 main protease (Mpro, nsp5)
Assay: thermal shift ΔTm of Mpro relative to plate average Tm; higher = stronger thermal stabilization of Mpro (binding)
Conditions: 10 µM; protein concentration 1 µM

Structure (SMILES)	thermal shift ΔTm of Mpro [°C]
O=C(O)c1ccc(O)c2ncccc12	0.155
COc1cc2ncnc(Nc3ccc(O)c(Br)c3)c2cc1OC	0.229
O=c1[nH]c(=S)[nH]c2nc(-c3ccccc3)c(-c3ccccc3)nc12 [SCR7 pyrazine]	-0.0118
COc1cc(-c2cc(-c3cccc(O)c3)cnc2N)cc(OC)c1OC	-0.261
O=C1NC(=O)/C(=C\c2c[nH]c(=O)c(-c3ccc(N4CCNCC4)nc3)c2)S1 [Protein kinase inhibitors 1 hydrochlorid]	0.206
CC(C)(C)NCC(O)COc1cccc2c1CC(O)C(O)C2 (stereo not drawn) [Nadolol]	0.185
CCN(CC)C(=O)c1ccc(C(=C2CCNCC2)c2ccccc2)cc1	-0.0558
Cc1ccc(S(=O)(=O)/C=C/C#N)cc1	-0.416
Nc1ccccc1NC(=O)c1ccc(CNc2nccc(-c3cccnc3)n2)cc1 [Mocetinostat (MGCD0103)]	-0.0694
COc1cc(-c2cc(-c3ccc(N4CCNCC4)cc3)cnc2C)cc(OC)c1OC	-0.151
Cn1nc(-c2ccc(C(F)(F)F)cc2)nc2c(=O)n(C)c(=O)nc1-2 [Walrycin B]	0.0248
O=[N+]([O-])O[C@H]1CO[C@H]2[C@@H]1OC[C@H]2O[N+](=O)[O-] [Isosorbide dinitrate]	0.00365
CC(C)(C)OC(=O)Nc1ccc(-c2cc(C(=O)NCCCCCCC(=O)NO)no2)cc1	0.556
C=C1CC[C@@]2(O)[C@H]3Cc4ccc(O)c5c4[C@@]2(CCN3CC2CC2)[C@H]1O5 [Nalmefene hydrochloride]	0.134
CCOCCn1c(N2CCCN(C)CC2)nc2ccccc21 [Emedastine]	0.0508
CC[C@H](C)C(=O)O[C@H]1C[C@H](O)C=C2C=C[C@H](C)[C@H](CC[C@@H](O)C[C@@H](O)CC(=O)O)[C@H]21 [Pravastatin sodium]	0.0146
Cc1cccn2c(=O)c(-c3nnn[nH]3)cnc12 [Pemirolast potassium]	0.124
CC1=C(C(=O)O)N2C(=O)[C@@H](NC(=O)[C@H](N)c3ccccc3)[C@H]2SC1 [Cephalexin]	-0.0266
Cc1nccn1CC1CCc2c(c3ccccc3n2C)C1=O (stereo not drawn) [Ondansetron HCl]	0.0935
Cc1nccn1CC1CCc2c(c3ccccc3n2C)C1=O (stereo not drawn) [Ondansetron hydrochloride]	-0.042
CC(=O)NC[C@H]1CN(c2ccc(N3CCOCC3)c(F)c2)C(=O)O1 [Linezolid]	0.198
CC(C)Cc1ccc([C@@H](C)C(=O)NS(C)(=O)=O)cc1 [Repertaxin]	-0.000229

Structure (SMILES)	thermal shift ΔTm of Mpro [°C]
COc1ccc2c(c1)c(CC(=O)OCC(=O)O)c(C)n2C(=O)c1ccc(Cl)cc1 [Acemetacin]	-0.0651
COc1cc2c(cc1Cc1cccc(Cl)c1F)c(=O)c(C(=O)O)cn2[C@H](CO)C(C)C [Elvitegravir (GS-9137, JTK-303)]	0.128
COc1ccc2cc3[n+](cc2c1OC)CCc1cc2c(cc1-3)OCO2 [Berberine HCl]	0.00619
OCC(S)CS (stereo not drawn) [Dithiopropanol]	0.0319
CCC(C)NC(=O)/C=C/c1ccc(Cl)c(Cl)c1 (stereo not drawn) [Lvguidingan]	0.0285
Cn1sc(=O)n(Cc2ccccc2)c1=O	-12.9
O=C(CCCN1CCC2(CC1)C(=O)NCN2c1ccccc1)c1ccc(F)cc1 [Spiperone]	0.0877
O=C1Nc2ccc(I)cc2/C1=C/c1cc(Br)c(O)c(Br)c1	1.7
COc1ccc(OC)c(C2C(C#N)=C(N)Oc3n[nH]c(-c4ccc5ccccc5c4)c32)c1 (stereo not drawn)	-0.123
O=C1N=C(O)NC1(c1ccccc1)c1ccccc1 [Phenytoin sodium]	0.0409
CC1(C)O[C@@H]2[C@@H](CO[C@@]3(COS(N)(=O)=O)OC(C)(C)O[C@@H]23)O1 [Topiramate]	0.14
CC[N+](CC)(CC(=O)Nc1c(C)cccc1C)Cc1ccccc1 [Denatonium benzoate]	0.236
COc1cc(NS(=O)(=O)c2ccc(N)cc2)nc(OC)n1 [Sulphadimethoxine]	0.136
c1ccc(CN(CCN(Cc2ccccn2)Cc2ccccn2)Cc2ccccn2)nc1	-0.0795
CCNc1nc(Nc2cc(F)c(C(=O)N3CCOCC3)cc2OC)ncc1C(F)(F)F	-0.223
CCCCN1CCC(CNC(=O)c2c3n(c4ccccc24)CCCO3)CC1 [Piboserod]	0.313
O=C(c1cccc(-c2nc3ccccc3[nH]2)n1)N1CCN(C(=O)c2cccc(-c3nc4ccccc4[nH]3)n2)CC1	0.0615
Cn1nnc(-c2ccc(-c3ccc(N4C[C@H](CO)OC4=O)cc3F)cn2)n1 [Torezolid]	0.0298
Cc1cccc(Nc2ccncc2S(=O)(=O)NC(=O)NC(C)C)c1 [Torasemide]	0.0659
Nc1cccc(-c2nc(N3CCOCC3)c3oc4ncccc4c3n2)c1 [PIK-inhibitors]	-0.00175
Cc1ccc(Cl)cc1N(CC(=O)Nc1c(F)cccc1F)S(C)(=O)=O	-0.208
O=C(c1ccc(F)cc1)N1CCC[C@H](c2nc(-c3ccc(F)cc3)no2)C1	-0.188

Reformatted: results already given
COc1ccc(OC)c(C2C(C#N)=C(N)Oc3n[nH]c(-c4ccc5ccccc5c4)c32)c1 (stereo not drawn)
  thermal shift ΔTm of Mpro [°C]: -0.123
O=C1N=C(O)NC1(c1ccccc1)c1ccccc1 [Phenytoin sodium]
  thermal shift ΔTm of Mpro [°C]: 0.0409
CC1(C)O[C@@H]2[C@@H](CO[C@@]3(COS(N)(=O)=O)OC(C)(C)O[C@@H]23)O1 [Topiramate]
  thermal shift ΔTm of Mpro [°C]: 0.14
CC[N+](CC)(CC(=O)Nc1c(C)cccc1C)Cc1ccccc1 [Denatonium benzoate]
  thermal shift ΔTm of Mpro [°C]: 0.236

More entries:

Structure (SMILES)	thermal shift ΔTm of Mpro [°C]
FC(F)(F)Oc1ccc(-c2ccc3nnc(C(F)(F)F)n3c2)cc1	0.0357
NC(=O)N1c2ccccc2CC(=O)c2ccccc21 [Oxcarbazepine]	0.238
NC1=NCC2c3ccccc3Cc3ccccc3N12 (stereo not drawn) [Epinastine HCl]	-0.133
COc1cc2ncnc(Nc3cccc(I)c3)c2cc1OC	0.158
Cc1nc2ccc(NC(=O)Nc3ccnc4cccnc34)cc2o1	0.123
Oc1nc(-c2ccc(C(F)(F)F)cc2)nc2c1CSCC2	0.0812
CC(C)Cn1cnc2c(N)nc3ccccc3c21 [Imiquimod]	0.0667
Cn1ncc2c1-c1c(Oc3ccc(OCc4ccc5ccccc5n4)cc3)sc(C(N)=O)c1CC2	-0.297
c1cc(CN2CCCNCCNCCCNCC2)ccc1CN1CCCNCCNCCCNCC1 [Plerixafor]	0.156
c1cc(CN2CCCNCCNCCCNCC2)ccc1CN1CCCNCCNCCCNCC1 [AMD 3100 octahydrochloride]	-0.0669
CC(C)NC(=N)NC(=N)Nc1ccc(Cl)cc1 [Proguanil hydrochloride]	-0.0323
CC(C)n1cnc2c(NCCc3ccc(O)cc3)nc(-c3csc4ccccc34)nc21 [StemRegenin 1 (SR1)]	0.6
O=C(NNc1ccccc1)c1ccncc1	0.137
CCNC(=O)c1cc2c(-c3cc(OCCN4CCCC4)c(Cl)cc3Cl)nc(N)nc2s1	0.29
Cc1nc2c(O)cccc2c(=O)[nH]1	-0.157
Cc1cc(F)c(Nc2ncnc3cc(OCc4ccccc4)ccc23)cc1O	-0.12
CCCC(=O)O[C@]1(C(=O)CO)CC[C@H]2[C@@H]3CCC4=CC(=O)CC[C@]4(C)[C@H]3[C@@H](O)C[C@@]21C [Hydrocortisone butyrate]	0.0832
Cc1cc(C#N)cc(C)c1Oc1nc(Nc2ccc(C#N)cc2)nc(N)c1Br [Etravirine (TMC125)]	0.629
Cn1cncc1[C@@](N)(c1ccc(Cl)cc1)c1ccc2c(c1)c(-c1cccc(Cl)c1)cc(=O)n2C [Tipifarnib]	-0.233
Cc1nnc(SCC2=C(C(=O)O)N3C(=O)[C@@H](NC(=O)Cn4cnnn4)[C@H]3SC2)s1 [Cefazolin sodium salt]	0.317
O=c1[nH]c(=O)n([C@H]2C[C@H](O)[C@@H](CO)O2)cc1C(F)(F)F [Trifluridine]	0.0771
CCCCCCCCNC(C)C(O)c1ccc(SC(C)C)cc1 (stereo not drawn) [Suloctidil]	-0.0334

Structure (SMILES)	thermal shift ΔTm of Mpro [°C]
O=C(O)c1ccc(/C=C2\SC(=S)N(Cc3cccc(C(F)(F)F)c3)C2=O)cc1	0.192
S=c1[nH]cnc2nc[nH]c12 [6-Mercaptopurine monohydrate]	0.0251
S=c1[nH]cnc2nc[nH]c12 [Mercaptopurine (6-MP)]	0.257
NCc1ccc(C(=O)O)cc1	0.287
Cc1cccc(-c2[nH]ncc2-c2ccc3ncccc3n2)n1	-0.0101
CN(Cc1ccc(C(C)(C)C)cc1)Cc1cccc2ccccc12 [Butenafine HCl]	0.0278
CN1CC[C@@H](c2c(O)cc(O)c3c(=O)cc(-c4ccccc4Cl)oc23)[C@@H]1CO	0.0668
O=C(NCCCNc1nc(Nc2cccc(NC(=O)N3CCCC3)c2)ncc1I)c1cccs1	0.23
O=C(O)C[C@H](O)C[C@H](O)/C=C/c1c(C2CC2)nc2ccccc2c1-c1ccc(F)cc1 [Pitavastatin Calcium]	-0.134
Cc1ccc(C)c(OCCCC(C)(C)C(=O)O)c1 [Gemfibrozil]	-0.045
CN1CCN(Cc2ccc(NC(=O)Nc3ccc(Oc4cc(NC(=O)C5CC5)ncn4)cc3)cc2C(F)(F)F)CC1	0.225
COc1cc2c(cc1OC)[C@@H]1Cc3ccc(OC)c(OC)c3CN1CC2 [Rotundine]	-0.0496
Cc1nn(C)cc1-c1nc2c(N3CCN(Cc4ccc(Cl)cc4)CC3)c(Cl)cnc2[nH]1	-0.081
CN1CCC(CNc2ccc3ncc(-c4cccc(OC(F)(F)F)c4)n3n2)CC1 [SGI-1776 free base]	-0.245
COc1ccc(CNc2nc(N(CCO)CCO)nc3c2ncn3C(C)C)cc1	0.117
NCC(=O)CCC(=O)O [5-Aminolevulinic acid HCl]	0.0128
C[C@H](NC(=O)CCc1nc2ccccc2c(=O)[nH]1)c1ccccc1	-0.121
COc1ccc(CN(CCN(C)C)c2ncccn2)cc1 [Thonzylamine]	0.2
CN(C)CCC=C1c2ccccc2C(C)(C)c2ccccc21 [Melitracen hydrochloride]	-0.1
Cc1ccc(Sc2ccccc2N2CCNCC2)c(C)c1	-0.149
Cc1ccc(Sc2ccccc2N2CCNCC2)c(C)c1 [Vortioxetine]	-0.0266
Cc1ccc(S(=O)(=O)N2CCCC2c2ccc(F)cc2)cc1 (stereo not drawn)	-0.06
